Experimental data: the supplement of paper PMC11546906
Counter-ions that a name gives are not always drawn. The list shows a part of the results. Repeats in this data set agree poorly, so a single value says little.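 Screen of FDA-approved drugs, each combined with colistin at one-eighth of its MIC, against a multidrug-resistant mcr-1-positive clinical E. coli isolate; growth read as OD600 after 24 h. Bacteria without drug were the growth control and plain broth the blank. A combination counted as active when OD600 fell below 0.2.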

Test system: Escherichia coli 42 (mcr-1-positive clinical isolate)
Experiment: OD600 after 24 h growth with compound plus colistin (absorbance units (OD600)); higher = more bacterial growth (less inhibition)
Conditions: first compound 25 µM; colistin concentration 0.5 ug/mL; incubation time 24 h; 37 °C

Row | SMILES | OD600
1 | CCCCC1=NC2(CCCC2)C(=O)N1Cc1ccc(-c2ccccc2-c2nnn[nH]2)cc1 [Irbesartan] + CCC(C)CCCC(=O)N[C@@H](CCN)C(=O)N[C@H](C(=O)N[C@@H](CCN)C(=O)N[C@H]1CCNC(=O)[C@H]([C@@H](C)O)NC(=O)[C@H](CCN)NC(=O)[C@H](CCN)NC(=O)[C@H](CC(C)C)NC(=O)[C@@H](CC(C)C)NC(=O)[C@H](CCN)NC1=O)[C@@H](C)O [colistin] | inactive: 0.784
2 | COc1cc2nccc(Oc3ccc(NC(=O)NC4CC4)c(Cl)c3)c2cc1C(N)=O [Lenvatinib mesylate] + CCC(C)CCCC(=O)N[C@@H](CCN)C(=O)N[C@H](C(=O)N[C@@H](CCN)C(=O)N[C@H]1CCNC(=O)[C@H]([C@@H](C)O)NC(=O)[C@H](CCN)NC(=O)[C@H](CCN)NC(=O)[C@H](CC(C)C)NC(=O)[C@@H](CC(C)C)NC(=O)[C@H](CCN)NC1=O)[C@@H](C)O [colistin] | inactive: 0.961
3 | CCCNC(C)C(=O)Nc1ccccc1C (centres undefined) [Prilocaine hydrochloride] + CCC(C)CCCC(=O)N[C@@H](CCN)C(=O)N[C@H](C(=O)N[C@@H](CCN)C(=O)N[C@H]1CCNC(=O)[C@H]([C@@H](C)O)NC(=O)[C@H](CCN)NC(=O)[C@H](CCN)NC(=O)[C@H](CC(C)C)NC(=O)[C@@H](CC(C)C)NC(=O)[C@H](CCN)NC1=O)[C@@H](C)O [colistin] | inactive: 1.15
4 | Cc1cc(C#N)cc(C)c1Oc1nc(Nc2ccc(C#N)cc2)nc(N)c1Br [Etravirine] + CCC(C)CCCC(=O)N[C@@H](CCN)C(=O)N[C@H](C(=O)N[C@@H](CCN)C(=O)N[C@H]1CCNC(=O)[C@H]([C@@H](C)O)NC(=O)[C@H](CCN)NC(=O)[C@H](CCN)NC(=O)[C@H](CC(C)C)NC(=O)[C@@H](CC(C)C)NC(=O)[C@H](CCN)NC1=O)[C@@H](C)O [colistin] | inactive: 1.03
